Results: publication PMC5489593
No constants are given. Whether binding was seen depends on the method and setting. In cells and extracts the contact can be indirect. Some results given as binding are weak or reduced against the parent protein; the word gives no strength. For part of these data: Where a sequence is shown, tags or fusion partners need not be part of it. Values belong to the molecule of their own block, whether it stands above or below them.

Amino acid sequences for entries named in this document (tags omitted). A change or cut given only in a name is not applied to a line headed by its entry. Chains listed by the source or under a name are the forms on record and can include a tag or linker. Residues count along the entry.
UniProt P40763: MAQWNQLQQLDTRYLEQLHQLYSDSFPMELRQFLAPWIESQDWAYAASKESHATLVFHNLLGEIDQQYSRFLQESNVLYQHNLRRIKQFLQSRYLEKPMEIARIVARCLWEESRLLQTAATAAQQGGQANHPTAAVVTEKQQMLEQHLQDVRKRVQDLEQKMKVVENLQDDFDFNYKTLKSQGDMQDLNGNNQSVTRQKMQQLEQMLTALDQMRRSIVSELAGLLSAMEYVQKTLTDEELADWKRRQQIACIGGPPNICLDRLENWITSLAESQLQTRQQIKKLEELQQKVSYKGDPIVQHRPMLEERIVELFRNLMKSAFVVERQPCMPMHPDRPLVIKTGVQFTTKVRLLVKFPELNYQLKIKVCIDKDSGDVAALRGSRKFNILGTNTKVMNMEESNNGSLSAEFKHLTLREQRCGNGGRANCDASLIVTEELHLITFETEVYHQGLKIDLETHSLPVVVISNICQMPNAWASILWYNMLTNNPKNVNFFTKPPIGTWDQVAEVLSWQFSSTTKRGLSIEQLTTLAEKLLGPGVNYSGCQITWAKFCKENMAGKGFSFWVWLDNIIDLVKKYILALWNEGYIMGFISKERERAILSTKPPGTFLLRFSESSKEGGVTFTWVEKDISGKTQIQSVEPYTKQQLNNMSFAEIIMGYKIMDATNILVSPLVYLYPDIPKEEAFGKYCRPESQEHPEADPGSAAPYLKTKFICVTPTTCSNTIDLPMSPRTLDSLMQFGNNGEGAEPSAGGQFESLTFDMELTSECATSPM
STAT3 deletion mutant with residues 581–770 fused to the Flag tag: residues 581-770 of P40763
UniProt P42227: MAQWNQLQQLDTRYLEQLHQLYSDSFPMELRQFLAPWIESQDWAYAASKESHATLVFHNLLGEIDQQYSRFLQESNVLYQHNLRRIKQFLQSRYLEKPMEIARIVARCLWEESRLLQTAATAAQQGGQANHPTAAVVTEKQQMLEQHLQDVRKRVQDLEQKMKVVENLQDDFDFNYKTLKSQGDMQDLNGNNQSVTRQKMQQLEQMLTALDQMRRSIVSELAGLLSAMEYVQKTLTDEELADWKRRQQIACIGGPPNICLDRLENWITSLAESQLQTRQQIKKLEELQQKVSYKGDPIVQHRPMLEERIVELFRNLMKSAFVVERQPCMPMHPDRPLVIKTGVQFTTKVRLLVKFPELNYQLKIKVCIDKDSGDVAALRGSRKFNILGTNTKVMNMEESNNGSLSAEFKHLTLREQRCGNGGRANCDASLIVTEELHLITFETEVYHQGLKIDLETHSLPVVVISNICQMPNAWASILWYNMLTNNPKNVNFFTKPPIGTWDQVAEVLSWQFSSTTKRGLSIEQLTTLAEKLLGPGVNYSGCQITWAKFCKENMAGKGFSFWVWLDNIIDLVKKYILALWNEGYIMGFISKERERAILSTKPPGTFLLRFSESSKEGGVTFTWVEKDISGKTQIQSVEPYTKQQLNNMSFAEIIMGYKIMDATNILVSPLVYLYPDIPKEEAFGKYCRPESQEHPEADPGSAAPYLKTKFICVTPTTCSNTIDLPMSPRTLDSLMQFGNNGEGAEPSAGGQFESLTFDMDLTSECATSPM

What was measured:
[1] = target: T1, sorcin-GFP fusion (pEGFP-sorcin, full-length human sorcin) (human) (UniProt P30626); experiment: co-IP; HEK293T co-transfected with GFP-tagged full-length or truncated sorcin and full-length flag-STAT3; IP with anti-GFP monoclonal antibody, blot with anti-flag
T1 sequence: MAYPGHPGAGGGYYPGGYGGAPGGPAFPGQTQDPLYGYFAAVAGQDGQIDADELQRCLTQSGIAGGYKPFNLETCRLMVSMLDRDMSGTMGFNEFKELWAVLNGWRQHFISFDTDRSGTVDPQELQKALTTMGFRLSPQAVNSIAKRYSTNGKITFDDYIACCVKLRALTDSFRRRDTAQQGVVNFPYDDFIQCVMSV

[2] = target: STAT3 deletion mutant with residues 581–770 fused to the Flag tag (human) (UniProt P40763); experiment: co-IP; HEK293T co-transfected with flag-STAT3 (full length or truncated) and pEGFP-sorcin; lysis in 1% Triton-100, 20 mM Tris-Cl, 5 mM EDTA, 137 mM NaCl; IP with anti-flag antibody, blot with anti-GFP
[3] = target: flag-STAT3 (pRK5-flag-STAT3, full-length human STAT3) (human) (UniProt P40763); experiment: as above
[4] = target: endogenous STAT3 of mouse hepatocytes (mouse (endogenous in hepatocytes)) (UniProt P42227); experiment: co-IP; extracts of hepatocytes from mice with or without ConA stimulation; IP with STAT3 antibody or control IgG, blot with anti-sorcin; both proteins endogenous
[5] = target: endogenous STAT3 of HepG2 cells (human (endogenous in HepG2)) (UniProt P40763); experiment: cross-linking + co-IP; HepG2 cells treated with 1 mmol/L DSS at room temperature for 30 min, lysed in Nonidet-40 buffer; IP with anti-STAT3 antibody, blot with anti-sorcin; both proteins endogenous
[6] = target: flag-STAT3 (pRK5-flag-STAT3, full-length human STAT3) (human) (UniProt P40763); experiment: co-IP; HEK293T transfected with pRK5-flag-STAT3; IP with anti-FLAG antibody, blot of endogenous sorcin with anti-sorcin antibody

B2: endogenous sorcin of mouse hepatocytes (protein, UniProt Q6P069 1-198)
chain: MAYPGHPGAGGGYYPGGYGGAPGGPAFPGQTQDPLYGYFAAVAGQDGQIDADELQRCLTQSGIAGGYKPFNLETCRLMVSMLDRDMSGTMGFNEFKELWAVLNGWRQHFISFDSDRSGTVDPQELQKALTTMGFRLSPQTVNSVAKRYSTSGKITFDDYIACCVKLRALTDSFRRRDSGQQGVVNFSYDDFIQCVMTV
binding [4]: binds

B3: endogenous sorcin of HepG2 cells (protein, UniProt P30626 1-198)
chain: MAYPGHPGAGGGYYPGGYGGAPGGPAFPGQTQDPLYGYFAAVAGQDGQIDADELQRCLTQSGIAGGYKPFNLETCRLMVSMLDRDMSGTMGFNEFKELWAVLNGWRQHFISFDTDRSGTVDPQELQKALTTMGFRLSPQAVNSIAKRYSTNGKITFDDYIACCVKLRALTDSFRRRDTAQQGVVNFPYDDFIQCVMSV
binding [5]: binds

B4: endogenous sorcin of HEK293T cells (protein, UniProt P30626 1-198)
chain: MAYPGHPGAGGGYYPGGYGGAPGGPAFPGQTQDPLYGYFAAVAGQDGQIDADELQRCLTQSGIAGGYKPFNLETCRLMVSMLDRDMSGTMGFNEFKELWAVLNGWRQHFISFDTDRSGTVDPQELQKALTTMGFRLSPQAVNSIAKRYSTNGKITFDDYIACCVKLRALTDSFRRRDTAQQGVVNFPYDDFIQCVMSV
binding [6]: binds

Further lines, results first:

binding [1]: binds
Molecule: flag-STAT3 (pRK5-flag-STAT3, full-length human STAT3) (from UniProt P40763-1 1-770)

binding [2]: binds
binding [3]: binds
B1: sorcin-GFP fusion (pEGFP-sorcin, full-length human sorcin) (protein, UniProt P30626-1 1-198)
chain: MAYPGHPGAGGGYYPGGYGGAPGGPAFPGQTQDPLYGYFAAVAGQDGQIDADELQRCLTQSGIAGGYKPFNLETCRLMVSMLDRDMSGTMGFNEFKELWAVLNGWRQHFISFDTDRSGTVDPQELQKALTTMGFRLSPQAVNSIAKRYSTNGKITFDDYIACCVKLRALTDSFRRRDTAQQGVVNFPYDDFIQCVMSV
